Test results taken from PubChem BioAssay AID463116 (University of Pittsburgh Molecular Library Screening Center, 2010).
The list shows a part of the results. The main result of the screen is listed elsewhere. These columns were measured beside it and carry no call. Compounds called inactive in the main read-out are mostly missing here.

Experiment: blockers of dexamethasone-driven GR-EGFP nuclear import – imaging, high-content imaging, GR-EGFP cells, confirmation (AID 463116)
Conditions: 3617.4 GR-EGFP nuclear translocation imaging, dexamethasone-induced; measured here: cell count per field; at 20 µM

Row | Compound | z-score
1 | N=c1oc2c3c4c(cc2cc1C(=O)Nc1ccccc1)CCCN4CCC3 | -0.167
2 | COc1cccc(C(=O)Oc2ccccc2/C=C\C(=O)c2cc3ccccc3o2)c1 | 0.176
3 | Cc1nc2ccccc2c(=O)n1/N=C/c1ccc([N+](=O)[O-])o1 | -0.315
4 | CC(/C=N/n1c(COc2ccccc2)n[nH]c1=S)=C\c1ccco1 | 0.886
5 | COC/C=C/C1=CC2=CC(=O)C(C)(OC(=O)c3cnc4ccccc4n3)C(=O)C2=CN1Cc1ccc(OC)cc1 (stereo unspecified) | -0.106
6 | CCCCN(C)C1=CC2=CC(=C(C#N)C#N)CCC2CC1 (stereo unspecified) | 0.124
7 | COC(=O)c1cn(NC(=O)c2cc([N+](=O)[O-])ccc2F)c(=O)c2ccccc12 | 0.622
8 | O=[N+]([O-])c1ccc(C2=NN(c3ccccc3)C(c3ccco3)C2)cc1 (stereo unspecified) | 0.737
9 | CN(c1ccccc1)c1ccc(/C=C/[N+](=O)[O-])cc1 | -3.79
10 | N#C/C(C(=O)c1ccccc1)=C1/SC=C(N)N1c1ccccc1 | 0.378
11 | Cc1occc1-c1nnc(SCC(=O)N2CCc3ccccc32)o1 | 0.189
12 | CCCN1C/C(=C/c2ccc3c(c2)OCO3)C(=O)/C(=C/c2ccc3c(c2)OCO3)C1 | 0.569
13 | Cc1nn(C)c(C(=O)Sc2cccc(Cl)c2)c1[N+](=O)[O-] | -0.182
14 | COc1ccc(N=CC2=C(Nc3ccc(OC)cc3)c3c(C)nn(-c4ccccn4)c3CC2)cc1 | 0.335
15 | N#CC12COC3(CCCCC3C1(C#N)C#N)OC2=N (stereo unspecified) | -0.173
16 | CCOC(=O)C(=Cc1ccc(OCc2ccc([N+](=O)[O-])cc2)c(OC)c1)C(=O)OCC | -0.171
17 | CCn1nc(C)cc1C(=O)Sc1cccc(Cl)c1 | 0.375
18 | O=C1C2C3C=CC(CO)(O3)C2C(=O)N1c1ccc(-c2ccccc2)cc1 (stereo unspecified) | -0.983
19 | CCOC(=O)C1=C(SCC)c2cc3c(n2C1=O)CCCC3 | 0.393
20 | Cc1ccc(-c2nc(NC(=O)c3nn(C)cc3[N+](=O)[O-])sc2C)cc1 | 0.0659
21 | CC(=O)NCc1ccc(C(=O)CCl)s1 | -0.0755
22 | CCOc1ccc(C(=O)/C=C/c2cc(OC)c(OC)c(OC)c2)cc1 | 0.0235
23 | CCn1nc(C)cc1C(=O)Sc1cccc(Br)c1 | -0.165
24 | O=C1C=CC(=O)N1c1ccc(O)cc1 | -5.48

Row | Compound | z-score
25 | NC(=O)/C=C/C(=O)Nc1ccc(Cl)cc1 | -0.0463
26 | CC(C)(C)C(=O)/C=c1\s/c(=C\c2ccc(-c3ccc([N+](=O)[O-])cc3)o2)c(=O)n1CC(=O)NC(N)=O | 0.221
27 | O=c1c(Cl)cc(Cl)nn1-c1ccccc1 | 0.351
28 | O=C(CC1Sc2ncnn2C1=O)Nc1ccc(Br)cc1 (stereo unspecified) | 0.574
29 | O=c1c(Cl)c(NCCCO)cnn1-c1nc2ccccc2[nH]1 | 0.55
30 | O=S(=O)(c1ccccc1)c1ncc(C(F)(F)F)cc1Cl | 0.401
31 | CCCCNc1ccc2c3c(cccc13)C(=O)N(CCCC)C2=O | -0.241
32 | CCCCCn1c(=O)c2ccccc2n2c(CCl)nnc12 | -0.304
33 | O=C(Cc1cccs1)Nc1nc(-c2ccc(F)cc2F)cs1 | -0.372
34 | O=S(=O)(CCN(CCS(=O)(=O)C(F)(F)F)CC1CCCO1)C(F)(F)F (stereo unspecified) | 0.838
35 | O=S(=O)(c1cnc(Cl)c(Br)c1)N1CCc2ccccc21 | -0.273
36 | O=C(CCl)Nc1cc(SCC(O)CO)cc([N+](=O)[O-])c1 (stereo unspecified) | 0.611
37 | CCC(=O)N1CCN(c2ccc(NC(=O)c3ccc([N+](=O)[O-])o3)cc2)CC1 | 0.0389
38 | Cc1ccc(-n2nnnc2CCl)cc1 | 0.0417
39 | COc1cccc(/C=C/C(=O)c2ccc(C)c([N+](=O)[O-])c2)c1 | 0.404
40 | CCCCS(=O)(=O)/C=C\C=C/S(=O)(=O)CCCC | 0.132
41 | C[C@@H](NC(=O)OC(C)(C)C)c1nnc(S(=O)(=O)Cc2ccccc2)o1 | 0.919
42 | CCOc1nc(C#N)nc(N2CCCCC2)n1 | 0.386
43 | O=C(Cn1ncc(Cl)c(Cl)c1=O)N1CCN(S(=O)(=O)c2ccc3ccccc3c2)CC1 | 0.336
44 | O=C1CCCCc2sc(Br)c([N+](=O)[O-])c2N1 | -0.0348
45 | O=C(Nc1ccccc1)c1nnsc1S(=O)c1ccc(Cl)cc1 (stereo unspecified) | -1.77
46 | Cc1cc(C(=O)Cn2ncc(Cl)c(Cl)c2=O)c(C)n1CC(F)(F)F | -0.264
47 | CC1=CC(=O)C=C(C)C1=NOS(=O)(=O)c1ccccc1 | 0.8
48 | CCCCCCC(=O)N(O)C1CC(=O)N(c2ccc(Cl)cc2)C1=O (stereo unspecified) | 0.537

A different layout for part of the listing above:
O=C(Cc1cccs1)Nc1nc(-c2ccc(F)cc2F)cs1
  z-score: -0.372
O=S(=O)(CCN(CCS(=O)(=O)C(F)(F)F)CC1CCCO1)C(F)(F)F (stereo unspecified)
  z-score: 0.838
O=S(=O)(c1cnc(Cl)c(Br)c1)N1CCc2ccccc21
  z-score: -0.273
O=C(CCl)Nc1cc(SCC(O)CO)cc([N+](=O)[O-])c1 (stereo unspecified)
  z-score: 0.611

Following part:

Row | Compound | z-score
49 | O=C(/C=C/c1ccccc1Cl)c1cccnc1 | 0.136
50 | CCOc1ccc2nc(SC3CC(=O)N(c4ccc(OC)cc4OC)C3=O)sc2c1 (stereo unspecified) | 0.173
51 | O=C(c1nnsc1S(=O)(=O)c1ccc(Cl)cc1)N1CCOCC1 | 0.964
52 | CN(C)c1ccc(/C=C/C(=O)c2cccc(Br)c2)cc1 | 0.277
53 | Cc1cc(Sc2nc(N)ncc2[N+](=O)[O-])ncn1 | 0.266
54 | CC1(C)C(=O)Nc2ccccc2N1C(=O)Cn1ncc(Cl)c(Cl)c1=O | 0.178
55 | CCC(=O)OCCNc1cc(SCCC(=O)OC)c2nonc2c1[N+](=O)[O-] | 0.0119
56 | O=C(Nc1ccc(N2CCCC2)c(Cl)c1)c1ccc([N+](=O)[O-])o1 | 0.267
57 | Cc1cc(/C=C2\Sc3ccccc3N2C)cc(C)[n+]1CC1CCCO1 (stereo unspecified) | -0.307
58 | COc1ccc(-c2cc(N)n(S(=O)(=O)c3c(F)c(F)c(F)c(F)c3F)n2)cc1OC | -0.602
59 | O=c1[nH]sc2ccccc12 | 0.32
60 | O=C(/C=C/c1ccccn1)c1ccc(Br)cc1O | 0.709
61 | Cc1c(-c2ccc(O)cc2)nc2nc(-c3ccccc3)c(-c3ccccc3)nn12 | 0.136
62 | O=C(c1ccccc1)c1cc(Cl)ccc1N1C(=O)C=CC1=O | -1.48
63 | Cc1cccn2c(=O)c(C=O)c(Cl)nc12 | 0.305
64 | O=C(CS(=O)c1ccc(C(F)(F)F)cc1[N+](=O)[O-])Oc1ccccc1 (stereo unspecified) | -0.53
65 | CN(C)c1nc(C=C(C#N)C#N)c(Cl)n1-c1ccc(F)cc1 | 0.946
66 | O=C(NCc1ccccn1)c1coc(=O)c(Br)c1 | -0.137
67 | O=C(Cn1c(=O)oc2cc(S(=O)(=O)NCc3ccccc3)ccc21)N1CCCC1 | -0.311
68 | CC[C@H](C)/C=C(C)/C=C/C(=O)Cc1cc(O)c(C)c(O)c1C=O | 0.389
69 | O=Cc1s/c(=N\S(=O)(=O)c2ccccc2)n(CCCCl)c1Cl | 0.116
70 | O=c1c(Cl)c(Cl)cnn1Cc1ccccc1Cl | 0.338
71 | CC1(C)COC(/C=C/c2ccc([N+](=O)[O-])cc2)=N1 | 0.627
